Measured values published in patent US8759301B2, “Gene fusion targeted therapy” (The Regents of The University of Michigan, priority 2010, dated 2014).
Like-named read-outs stand apart in the source and are kept apart here. This continues a long series; more values of the same kind are listed elsewhere.

The chains behind the UniProt entries cited, without tags or fusion partners. Where a name states a change or a piece, a line headed by the entry shows the natural chain unless it says otherwise.
UniProt P10275: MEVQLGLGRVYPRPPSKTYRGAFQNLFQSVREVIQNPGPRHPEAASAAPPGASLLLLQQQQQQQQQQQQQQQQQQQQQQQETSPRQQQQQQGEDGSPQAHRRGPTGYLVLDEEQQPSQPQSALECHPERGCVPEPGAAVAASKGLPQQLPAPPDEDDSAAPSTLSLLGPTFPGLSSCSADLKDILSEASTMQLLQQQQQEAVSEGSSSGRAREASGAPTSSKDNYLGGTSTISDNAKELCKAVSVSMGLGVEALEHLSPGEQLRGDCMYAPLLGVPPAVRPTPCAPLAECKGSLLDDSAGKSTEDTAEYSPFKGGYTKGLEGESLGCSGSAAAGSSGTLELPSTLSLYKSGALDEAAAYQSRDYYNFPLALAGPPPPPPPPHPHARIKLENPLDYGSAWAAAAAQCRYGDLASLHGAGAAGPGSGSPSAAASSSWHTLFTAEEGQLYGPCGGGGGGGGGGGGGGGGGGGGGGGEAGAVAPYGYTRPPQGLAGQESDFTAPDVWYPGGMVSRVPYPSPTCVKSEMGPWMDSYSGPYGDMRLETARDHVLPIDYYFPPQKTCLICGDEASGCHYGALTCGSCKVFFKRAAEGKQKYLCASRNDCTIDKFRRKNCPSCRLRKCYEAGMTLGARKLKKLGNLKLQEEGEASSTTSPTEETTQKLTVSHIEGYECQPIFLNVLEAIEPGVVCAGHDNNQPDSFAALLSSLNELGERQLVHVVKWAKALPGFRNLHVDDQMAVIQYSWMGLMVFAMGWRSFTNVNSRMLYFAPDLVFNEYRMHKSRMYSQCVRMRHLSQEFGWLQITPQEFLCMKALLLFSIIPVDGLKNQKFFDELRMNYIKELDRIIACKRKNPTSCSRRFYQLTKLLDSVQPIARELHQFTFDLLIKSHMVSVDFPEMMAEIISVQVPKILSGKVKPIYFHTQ

Molecular target: AR (Homo sapiens, UniProt P10275)
Conditions: VCaP R1881-treated
Description: For ERG ChIP, LNCaP, VCaP, RWPE+ERG, and RWPE+GUS cells grown in corresponding regular medium were used.
ChIP samples were prepared for sequencing using the Genomic DNA sample prep kit (Illumina) following manufacturers protocols. ChIP-Sequencing was performed using Illumina Genome Analyzer according to standard manufacturer's procedures. The raw sequencing image data were analyzed by the Illumina analysis pipeline, aligned to the unmasked human reference genome (NCBI v36, hg18) using the ELAND software (Illumina) to generate sequence reads of 25-32 bps.
It was first counted how many uniquely mapped reads are there in each sample and the ratio of the two counts was used as the normalizing factor to bring the total number of useable reads to the same level in both samples. Next each uniquely mapped read was extended directionally to form a 200 bp hypothetical DNA fragment (HDF) in each sample. 200 is assumed to be the average length of size-selected DNA pieces during sample preparation (175-225 bp).
Under the null hypothesis of no enrichment in the stimulated sample versus unstimulated samples, reads from both samples are assumed to land on the genome following the same Poisson distribution (after corrected for the read counts in the unstimulated sample). The average sequencing depth across the whole genome is used as the background rate estimate r0. The probability of observing the read difference between two samples in each coverage region was calculated numerically.
HMM was applied to define where enriched regions start and end. To be specific, the entire genome was partitioned into 25 bp bin and the read coverage is counted in each bin in the two samples. The two states are enriched region and background. The observed data are HDF coverage difference. In the enriched regions, it was expected that enrichment of HDFs would be present in the stimulated sample but not in the unstimulated samples. Therefore the differences are assumed to be the result of two different Poisson distributions with rates r1 and r2, r1>r2. In background, the differences are assumed to come from two identical Poisson distribution with rate r0. The transition probabilities are estimated empirically. From the output of HMM, regions are selected based on posterior probability of being in the enriched regions.

Structure (SMILES): C[C@]1(O)CC[C@H]2[C@@H]3CCC4=CC(=O)CCC4=C3C=C[C@@]21C [R1881, methyltrienolone]
- number of AR binding sites (distance to TSS 103 kb): 8
- number of AR binding sites (distance to TSS 104 kb): 15
- number of AR binding sites (distance to TSS 105 kb): 9
- number of AR binding sites (distance to TSS 106 kb): 13
- number of AR binding sites (distance to TSS 107 kb): 14
- number of AR binding sites (distance to TSS 108 kb): 9
- number of AR binding sites (distance to TSS 109 kb): 7
- number of AR binding sites (distance to TSS 110 kb): 9
- number of AR binding sites (distance to TSS 111 kb): 6
- number of AR binding sites (distance to TSS 112 kb): 11
- number of AR binding sites (distance to TSS 113 kb): 8
- number of AR binding sites (distance to TSS 114 kb): 9
- number of AR binding sites (distance to TSS 115 kb): 15
- number of AR binding sites (distance to TSS 116 kb): 9
- number of AR binding sites (distance to TSS 117 kb): 5
- number of AR binding sites (distance to TSS 118 kb): 14
- number of AR binding sites (distance to TSS 119 kb): 6
- number of AR binding sites (distance to TSS 120 kb): 8
- number of AR binding sites (distance to TSS 121 kb): 12
- number of AR binding sites (distance to TSS 122 kb): 11
- number of AR binding sites (distance to TSS 123 kb): 8
- number of AR binding sites (distance to TSS 124 kb): 8
- number of AR binding sites (distance to TSS 125 kb): 4
- number of AR binding sites (distance to TSS 126 kb): 11
- number of AR binding sites (distance to TSS 127 kb): 7
- number of AR binding sites (distance to TSS 128 kb): 7
- number of AR binding sites (distance to TSS 129 kb): 8
- number of AR binding sites (distance to TSS 130 kb): 4
- number of AR binding sites (distance to TSS 131 kb): 9
- number of AR binding sites (distance to TSS 132 kb): 11
- number of AR binding sites (distance to TSS 133 kb): 7
- number of AR binding sites (distance to TSS 134 kb): 10
- number of AR binding sites (distance to TSS 135 kb): 9
- number of AR binding sites (distance to TSS 136 kb): 15
- number of AR binding sites (distance to TSS 137 kb): 13
- number of AR binding sites (distance to TSS 138 kb): 12
- number of AR binding sites (distance to TSS 139 kb): 7
- number of AR binding sites (distance to TSS 140 kb): 7
- number of AR binding sites (distance to TSS 141 kb): 7
- number of AR binding sites (distance to TSS 142 kb): 5
- number of AR binding sites (distance to TSS 143 kb): 8
- number of AR binding sites (distance to TSS 144 kb): 6
- number of AR binding sites (distance to TSS 145 kb): 6
- number of AR binding sites (distance to TSS 146 kb): 7
- number of AR binding sites (distance to TSS 147 kb): 6
- number of AR binding sites (distance to TSS 148 kb): 4
- number of AR binding sites (distance to TSS 149 kb): 10
- number of AR binding sites (distance to TSS 150 kb): 7
- number of AR binding sites (distance to TSS 151 kb): 6
- number of AR binding sites (distance to TSS 152 kb): 4
- number of AR binding sites (distance to TSS 153 kb): 8
- number of AR binding sites (distance to TSS 154 kb): 7
- number of AR binding sites (distance to TSS 155 kb): 7
- number of AR binding sites (distance to TSS 156 kb): 1
- number of AR binding sites (distance to TSS 157 kb): 7
- number of AR binding sites (distance to TSS 158 kb): 3
- number of AR binding sites (distance to TSS 159 kb): 8
- number of AR binding sites (distance to TSS 160 kb): 8
- number of AR binding sites (distance to TSS 161 kb): 2
- number of AR binding sites (distance to TSS 162 kb): 3
- number of AR binding sites (distance to TSS 163 kb): 5
- number of AR binding sites (distance to TSS 164 kb): 5
- number of AR binding sites (distance to TSS 165 kb): 7
- number of AR binding sites (distance to TSS 166 kb): 5
- number of AR binding sites (distance to TSS 167 kb): 3
- number of AR binding sites (distance to TSS 168 kb): 3
- number of AR binding sites (distance to TSS 169 kb): 5
- number of AR binding sites (distance to TSS 170 kb): 2
- number of AR binding sites (distance to TSS 171 kb): 6
- number of AR binding sites (distance to TSS 172 kb): 6
- number of AR binding sites (distance to TSS 173 kb): 6
- number of AR binding sites (distance to TSS 174 kb): 7
- number of AR binding sites (distance to TSS 175 kb): 4
- number of AR binding sites (distance to TSS 176 kb): 3
- number of AR binding sites (distance to TSS 177 kb): 3
- number of AR binding sites (distance to TSS 178 kb): 4
- number of AR binding sites (distance to TSS 179 kb): 5
- number of AR binding sites (distance to TSS 180 kb): 7
- number of AR binding sites (distance to TSS 181 kb): 5
- number of AR binding sites (distance to TSS 182 kb): 8
- number of AR binding sites (distance to TSS 183 kb): 1
- number of AR binding sites (distance to TSS 184 kb): 6
- number of AR binding sites (distance to TSS 185 kb): 6
- number of AR binding sites (distance to TSS 186 kb): 4
- number of AR binding sites (distance to TSS 187 kb): 4
- number of AR binding sites (distance to TSS 188 kb): 2
- number of AR binding sites (distance to TSS 189 kb): 5
- number of AR binding sites (distance to TSS 190 kb): 6
- number of AR binding sites (distance to TSS 191 kb): 2
- number of AR binding sites (distance to TSS 192 kb): 1
- number of AR binding sites (distance to TSS 193 kb): 3
- number of AR binding sites (distance to TSS 194 kb): 1
- number of AR binding sites (distance to TSS 195 kb): 5
- number of AR binding sites (distance to TSS 197 kb): 2
- number of AR binding sites (distance to TSS 198 kb): 3
- number of AR binding sites (distance to TSS 199 kb): 2
